# From patent US11371019B2, “Efficient generation of human red blood cells via enriching peripheral blood erythroid progenitors” (Whitehead Institute for Biomedical Research, priority 2016, dated 2022)
# At least one compound was matched to its structure with a doubt left.
# System: TGFBR3^loCD71^hi erythroid progenitors
# Experiment: erythrocyte production from purified erythroid progenitors in culture
# Assay type: cell-based, human
# Settings: DEX combined with fenofibrate; FIG. 11
row,Structure (SMILES),erythrocyte production
1,"C[C@@H]1C[C@H]2[C@@H]3CCC4=CC(=O)C=C[C@]4(C)[C@@]3(F)[C@@H](O)C[C@]2(C)[C@@]1(O)C(=O)CO [DEX, dexamethasone]",synergizes with fenofibrate to increase erythrocyte production
2,CC(C)OC(=O)C(C)(C)Oc1ccc(C(=O)c2ccc(Cl)cc2)cc1 [fenofibrate],increase erythrocyte production
